These are yes or no findings as the source states them, for the method shown. Some entries that bind do so weakly or less than the wild type. Where a sequence is shown, tags or fusion partners need not be part of it. Blank lines part the entries; values can stand above or below the molecule they belong to.
Target: T1, Reh1-3xFLAG (S. cerevisiae) (UniProt Q06709)
T1 sequence: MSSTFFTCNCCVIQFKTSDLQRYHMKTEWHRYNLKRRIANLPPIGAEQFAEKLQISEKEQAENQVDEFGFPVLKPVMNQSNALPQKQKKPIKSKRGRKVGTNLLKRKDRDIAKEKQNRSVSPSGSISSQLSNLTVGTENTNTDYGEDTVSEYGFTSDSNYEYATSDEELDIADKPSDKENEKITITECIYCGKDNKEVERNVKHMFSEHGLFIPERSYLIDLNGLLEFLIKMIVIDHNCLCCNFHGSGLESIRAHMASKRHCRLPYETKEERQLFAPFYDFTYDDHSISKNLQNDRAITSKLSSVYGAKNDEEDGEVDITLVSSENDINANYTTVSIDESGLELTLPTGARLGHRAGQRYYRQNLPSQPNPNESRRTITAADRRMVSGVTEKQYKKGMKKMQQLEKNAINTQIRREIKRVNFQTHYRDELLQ
Assay: cryo-EM structure

By UniProt entry, the sequences of proteins in these tests, tags left out.
UniProt Q12522: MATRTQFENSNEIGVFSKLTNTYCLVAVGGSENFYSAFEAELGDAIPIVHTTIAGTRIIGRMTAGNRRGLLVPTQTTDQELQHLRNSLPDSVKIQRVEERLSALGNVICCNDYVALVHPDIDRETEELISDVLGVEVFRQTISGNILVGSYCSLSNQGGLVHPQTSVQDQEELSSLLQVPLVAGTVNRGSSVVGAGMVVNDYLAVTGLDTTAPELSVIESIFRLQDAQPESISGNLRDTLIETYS

- binding: binds
Molecule: Tif6 (from UniProt Q12522 1-245)

- binding: binds
B1: Nmd3 (protein, UniProt P38861 1-518)
chain: MEFTPIDPHQHQNAATLLCCNCGTPIDGSTGLVMCYDCIKLTVDITQGIPREANISFCRNCERFLQPPGQWIRAELESRELLAICLRRLKGLTKVRLVDASFIWTEPHSRRIRIKLTVQGEAMTNTIIQQTFEVEYIVIAMQCPDCARSYTTNTWRATVQIRQKVPHKRTFLFLEQLILKHNAHVDTISISEAKDGLDFFYAQKNHAVKMIDFLNAVVPIKHKKSEELISQDTHTGASTYKFSYSVEIVPICKDDLVVLPKKLAKSMGNISQFVLCSKISNTVQFMDPTTLQTADLSPSVYWRAPFNALADVTQLVEFIVLDVDSTGISRGNRVLADITVARTSDLGVNDQVYYVRSHLGGICHAGDSVMGYFIANSNYNSDLFDGLNIDYVPDVVLVKKLYQRKSKKSRHWKLKRMAKEHKDIDASLDYNSRAQKQEMERAEKDYELFLQELEEDAELRQSVNLYKNREANVPPEEHEMDEDEDEDAPQINIDELLDELDEMTLEDGVENTPVESQQ

Reference: paper doi:10.1101/2023.10.23.563604
